Experiment: general procedure: Fmoc solid-phase peptide synthesis; TentaGel S NH2 with HMPA linker; DIC/HOAt; TBTU; PyAOP/DIEA
Conditions: whole synthesis

Q: With “HC(CH2CO-LysGluProAsnLysGlyValAsnProAspGluValβAla)2COOH” as the substance, how does the isolated yield read?
A: approx. 20% yield

Source: patent US20040086949A1 (Statens Serum Institut, priority 1998, published 2004)
